Results from one PubChem assay

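Uptake of anthrax lethal toxin into cultured cells, read by FRET (460/530 nm ratio) and reported from the 460 nm channel; the cell line is not named here. Each compound was tested as a concentration series from about 0.0005 to 40 µM. The number is the fitted AC50 of the 460 nm signal alone; lower values mean a more potent effect. A falling signal goes with compounds filed as inhibitors or cytotoxic, a rising one with activators or fluorescent compounds (inferred from the filed classes).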

Values are in µM. Common to all entries: measured here: 460 nm channel. This is a side read-out of the assay, for part of the compounds, not drawn at random. A potency from a partial, single-point or poor curve is only a rough figure. The first word of each remark tells which way the curve ran; it can be opposite to the aim of the assay.

| # | compound | AC50 (µM) | curve |
|---|---|---|---|
| 1 | `Cc1ccccc1NC(=O)CN1C(=O)COc2ccc(Cl)cc21` | 12.59 | falling, partial curve |
| 2 | `COCCn1c(=O)c(CCc2ccccc2)nc2cnc(N3CCNCC3)nc21` | 10 | rising, partial curve |
| 3 | `CCNC(=O)[C@@H]1O[C@@H](n2cnc3c(NCc4ccccc4)ncnc32)[C@@H](O)[C@H]1O` | 12.59 | falling, single point |
| 4 | `CC[C@@H]1[C@H]2CCCCN3[C@@H]2[C@@H](C[C@H]3[C@@H]2C[C@H](C)C(=O)O2)[C@@H]2[C@H]1OC(=O)[C@H]2C` | 12.59 | falling, partial curve |
| 5 | `CCOC(=O)C1CCN(Cc2ccc(F)c(Br)c2)CC1` | 31.62 | falling, single point |
| 6 | `CCCCCn1c(SCCN2CCOCC2)nc2c1c(=O)[nH]c(=O)n2C` | 3.162 | falling, partial curve |
| 7 | `O=C(Nc1cccc(F)c1)N1CCC2(CC1)CCN(S(=O)(=O)c1ccccc1)CC2` | 3.981 | rising, partial curve |
| 8 | `CN1CCN(c2ncc3nc(-c4cccs4)c(=O)n(CCC#N)c3n2)CC1` | 12.59 | rising, partial curve |
| 9 | `CC1(N2CCOCC2)CC2(O)C(=[N+]1[O-])CCc1nonc12` (stereo not drawn) | 1 | falling, full curve |
| 10 | `Cc1c(C#N)c2ccccc2n1CCOc1ccccc1F` | 5.012 | falling, partial curve |
| 11 | `CCOC(=O)c1c(-c2ccc(C)cc2C)csc1NC(=O)CSc1nnnn1C` | 25.12 | falling, single point |
| 12 | `COc1cc(C(=O)Nc2ccc(S(=O)(=O)N3CCCCC3C)cc2)cc(OC)c1OC` (stereo not drawn) | 12.59 | falling, single point |
| 13 | `O=C(Cn1cc2c(n1)CCCC2)NCCCN1CCN(Cc2ccccc2)CC1` | 5.012 | falling, partial curve |
| 14 | `O=C(Nc1nccs1)c1cnccn1` | 5.012 | rising, single point |
| 15 | `COc1cccc(Cn2nnc(C(=O)Nc3cc(Cl)ccc3OC)c2N)c1` | 3.981 | falling, full curve |
| 16 | `Nc1c(C(=O)NC2CCCC2)sc2nc(-c3cccs3)ccc12` | 19.95 | rising, single point |
| 17 | `CCOc1ccccc1NC(=O)CSc1nnc2c(CC)c(C)nc(N)n12` | 5.012 | falling, single point |
| 18 | `COc1ccccc1CNc1ncnc2ccc(-c3c(C)noc3C)cc12` | 0.07943 | rising, full curve, poor fit |
| 19 | `O=C1c2ccccc2C(Nc2ccc3c(c2)OCCO3)N1Cc1ccc2c(c1)OCO2` (stereo not drawn) | 19.95 | falling, single point |
| 20 | `O=C1[C@H]2[C@H]3[C@H](O)[C@H](O)C/C(=N/OC[C@@H](O)COCc4ccco4)[C@H]3CC[C@@H]2C(=O)N1C1CCCCC1` | 0.03981 | falling, full curve |
| 21 | `CC(=O)CCc1ccccc1` | 31.62 | falling, single point |
| 22 | `CCOC(=O)c1cc2c(=O)n3ccccc3nc2n(CC(C)C)c1=NC(=O)c1ccco1` | 12.59 | rising, partial curve |
| 23 | `CC1(C)Oc2ccc(C(=O)NC3CCCC3)cc2N(CC(=O)N2CCOCC2)C1=O` | 12.59 | rising, single point |
| 24 | `CC(C)NC(=O)CN(CCc1ccccc1)S(C)(=O)=O` | 0.01 | rising, full curve |
| 25 | `C=CCOc1cccc(C2C(C(=O)c3ccco3)=C(O)C(=O)N2CCN(CC)CC)c1` (stereo not drawn) | 0.003981 | rising, full curve, poor fit |
| 26 | `O=C(Nc1ccccc1N1CCCCC1)c1ccccc1F` | 19.95 | falling, single point |
| 27 | `COc1ccc(CN(C(=O)CSc2nnc(-c3ccccc3F)o2)c2ccc(F)cc2)cc1` | 10 | falling, partial curve |
| 28 | `O=S(=O)(Nc1ccc(-c2nc3cccnc3s2)cc1)c1cccs1` | 3.162 | rising, full curve |
| 29 | `CCc1ccc(S(=O)(=O)NCc2csc(-c3ccccc3)n2)s1` | 12.59 | falling, single point |
| 30 | `Cc1cccc(CNc2ncnc3ccc(-c4cccc(C#N)c4)cc23)c1` | 25.12 | falling, single point |
| 31 | `Cc1onc(-c2c(Cl)cccc2Cl)c1C(=O)N1CCc2ccccc21` | 12.59 | falling, partial curve |
| 32 | `Cc1ccc(N2C(=O)c3ccc(N)cc3C2=O)cc1C` | 6.31 | falling, partial curve |
| 33 | `O=C(CCNS(=O)(=O)c1ccc2c(c1)CCC(=O)N2)Nc1ccc2c(c1)OCCO2` | 5.012 | rising, single point |
| 34 | `Cc1[nH]c2ccccc2c1C(O)CN1CCN(c2cccc(C(F)(F)F)c2)CC1` (stereo not drawn) | 25.12 | falling, partial curve |
| 35 | `C=CCn1c(SCC(=O)N2CCOCC2)nc2sc3c(c2c1=O)CCCC3` | 1.585 | falling, partial curve |
| 36 | `CN=C(NC#N)NCCSCc1nc[nH]c1C` | 25.12 | falling, single point |
| 37 | `COc1cccc(C(O)c2cnc(C(C)C)n2C)c1OC` (stereo not drawn) | 25.12 | rising, single point |
| 38 | `O=C(CSc1nc2c(c(=O)n1-c1ccc(Cl)cc1)SCC2)Nc1ccc2c(c1)OCCO2` | 31.62 | falling, single point |
| 39 | `CC(C)OC(=O)C1C2C=CC3(CN(CC4CCCO4)C(=O)C13)O2` (stereo not drawn) | 1 | rising, partial curve |
| 40 | `CCC(=O)c1cc2c(cc1NC(=O)C(C)C)OCCO2` | 0.631 | rising, full curve, poor fit |
| 41 | `O=[N+]([O-])/C=C/c1ccccc1` | 5.012 | falling, full curve |
| 42 | `CCOc1ccc(NCc2nnc(SCC(=O)Nc3cc(C)on3)n2-c2ccccc2OC)cc1` | 12.59 | rising, single point |
| 43 | `CCOC(=O)c1c(C)n(C)c2ccc(OCC(O)CN3CCC(C)CC3)cc12` (stereo not drawn) | 19.95 | falling, single point |
| 44 | `CCN1CCN(c2ccc(NC(=O)c3cccc4ncccc34)cc2)CC1` | 31.62 | falling, partial curve, poor fit |
| 45 | `Cc1ccc2c(c1)sc1ncc(NC(=O)c3ccccc3)c(=O)n12` | 0.01995 | falling, full curve, poor fit |
| 46 | `COc1cccc(OC)c1C(=O)Nc1ccc2c(c1)OCCO2` | 31.62 | falling, partial curve |
| 47 | `Cc1ccc(C(=O)N2CCCC(c3nc4c(nnn4Cc4ccccc4)c(=O)[nH]3)C2)cc1` (stereo not drawn) | 0.1259 | rising, full curve |
| 48 | `O=C(Nc1ccccc1Cl)c1ccc2c(c1)N(Cc1ccc(F)cc1)C(=O)CS2=O` (stereo not drawn) | 0.3981 | falling, full curve, poor fit |
| 49 | `CCC(C)(C)NC(=O)CN(C(=O)CCC(=O)Nc1cc(C)ccn1)c1ccc2c(c1)OCO2` | 10 | rising, partial curve |
| 50 | `COC(=O)[C@@H](NC(=O)c1cc(-c2ccccc2)nc2ccccc12)c1ccccc1` | 15.85 | falling, partial curve |
| 51 | `COc1ccccc1CNc1ccnc(-c2ccccc2C(F)(F)F)n1` | 3.981 | falling, single point |
| 52 | `Brc1ccc(C2Nc3cccc4cccc(c34)N2)o1` | 12.59 | falling, partial curve |
| 53 | `Cc1cc(C(=O)O)c(CCCN)s1` | 0.1 | falling, full curve |
| 54 | `CN1C(=O)CS(=O)c2ccc(C(=O)NCCC3=CCCCC3)cc21` (stereo not drawn) | 5.012 | rising, single point |

The last 5 entries again:

With COC(=O)[C@@H](NC(=O)c1cc(-c2ccccc2)nc2ccccc12)c1ccccc1 the assay gave AC50 15.85 µM (falling, partial curve).
With COc1ccccc1CNc1ccnc(-c2ccccc2C(F)(F)F)n1 the assay gave AC50 3.981 µM (falling, single point).
With Brc1ccc(C2Nc3cccc4cccc(c34)N2)o1 the assay gave AC50 12.59 µM (falling, partial curve).
With Cc1cc(C(=O)O)c(CCCN)s1 the assay gave AC50 0.1 µM (falling, full curve).
With CN1C(=O)CS(=O)c2ccc(C(=O)NCCC3=CCCCC3)cc21 (stereo not drawn) the assay gave AC50 5.012 µM (rising, single point).

The results are deposited in PubChem (AID912; NCATS, 2007).